Data taken from publication doi:10.1101/2022.09.22.509058.
These are yes or no findings as the source states them, for the method shown. Binding can be weak; no strength is given. Sequences can lack the tags named with a protein.

T1: OsSHR1 fused with the DNA binding domain (pGBKT7) (rice (Oryza sativa L. japonica cultivar Nipponbare)) (UniProt Q8H2X8)
T1 sequence: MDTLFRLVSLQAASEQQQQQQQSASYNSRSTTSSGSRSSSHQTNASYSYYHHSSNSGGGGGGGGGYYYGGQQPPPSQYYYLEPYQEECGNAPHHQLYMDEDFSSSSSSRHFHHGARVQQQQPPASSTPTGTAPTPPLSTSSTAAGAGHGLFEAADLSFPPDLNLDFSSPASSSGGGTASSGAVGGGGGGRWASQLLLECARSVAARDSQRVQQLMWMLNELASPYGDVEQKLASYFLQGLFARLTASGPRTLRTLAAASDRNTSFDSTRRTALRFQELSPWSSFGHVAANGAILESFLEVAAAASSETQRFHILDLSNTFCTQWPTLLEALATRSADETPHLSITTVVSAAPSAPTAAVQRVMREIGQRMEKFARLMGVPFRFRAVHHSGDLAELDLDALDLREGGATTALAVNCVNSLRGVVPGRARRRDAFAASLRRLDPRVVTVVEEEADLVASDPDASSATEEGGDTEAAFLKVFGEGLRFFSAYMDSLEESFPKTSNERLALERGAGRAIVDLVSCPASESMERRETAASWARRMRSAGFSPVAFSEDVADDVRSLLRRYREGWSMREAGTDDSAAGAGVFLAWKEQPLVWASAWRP

T2: OsSHR2 fused with the DNA binding domain (pGBKT7) (rice (Oryza sativa L. japonica cultivar Nipponbare)) (UniProt Q75I13)
T2 sequence: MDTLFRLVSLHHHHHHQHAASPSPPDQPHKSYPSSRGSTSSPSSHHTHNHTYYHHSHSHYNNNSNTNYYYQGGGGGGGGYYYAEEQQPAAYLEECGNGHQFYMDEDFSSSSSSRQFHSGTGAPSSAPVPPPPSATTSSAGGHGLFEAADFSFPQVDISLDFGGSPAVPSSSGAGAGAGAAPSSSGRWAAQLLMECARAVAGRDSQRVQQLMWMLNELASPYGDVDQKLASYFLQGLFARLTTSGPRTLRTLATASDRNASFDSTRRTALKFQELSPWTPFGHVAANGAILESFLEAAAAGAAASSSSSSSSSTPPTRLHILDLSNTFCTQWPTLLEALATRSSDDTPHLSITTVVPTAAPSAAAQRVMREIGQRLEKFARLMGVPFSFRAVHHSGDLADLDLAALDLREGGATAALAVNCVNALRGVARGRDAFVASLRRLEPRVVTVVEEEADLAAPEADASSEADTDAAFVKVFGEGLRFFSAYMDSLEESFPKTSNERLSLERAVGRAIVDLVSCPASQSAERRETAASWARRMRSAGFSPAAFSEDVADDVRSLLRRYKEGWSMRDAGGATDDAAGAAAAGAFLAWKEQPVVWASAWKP


What was measured:
[1] = target: T1, OsSHR1 fused with the DNA binding domain (pGBKT7) (rice (Oryza sativa L. japonica cultivar Nipponbare)); assay: two-hybrid
[2] = target: T2, OsSHR2 fused with the DNA binding domain (pGBKT7) (rice (Oryza sativa L. japonica cultivar Nipponbare)); assay: two-hybrid
[3] = target: GST: OsIDD13 fusion protein (rice (Oryza sativa L. japonica cultivar Nipponbare)); assay: pull-down
[4] = target: GST: OsIDD12 fusion protein (rice (Oryza sativa L. japonica cultivar Nipponbare)) (UniProt B7EZP0); assay: pull-down

| binding [1] | binding [2] | binding [3] | binding [4] | Molecule |
| --- | --- | --- | --- | --- |
| binds | binds |  |  | OsIDD13 fused with the activation domain (pGADT7) |
| binds | binds |  |  | OsIDD12 fused with the activation domain (pGADT7) (from UniProt B7EZP0) |
|  |  | binds | binds | MBP:OsSHR1 fusion protein (protein, UniProt Q8H2X8 1-602) MDTLFRLVSLQAASEQQQQQQQSASYNSRSTTSSGSRSSSHQTNASYSYYHHSSNSGGGGGGGGGYYYGGQQPPPSQYYYLEPYQEECGNAPHHQLYMDEDFSSSSSSRHFHHGARVQQQQPPASSTPTGTAPTPPLSTSSTAAGAGHGLFEAADLSFPPDLNLDFSSPASSSGGGTASSGAVGGGGGGRWASQLLLECARSVAARDSQRVQQLMWMLNELASPYGDVEQKLASYFLQGLFARLTASGPRTLRTLAAASDRNTSFDSTRRTALRFQELSPWSSFGHVAANGAILESFLEVAAAASSETQRFHILDLSNTFCTQWPTLLEALATRSADETPHLSITTVVSAAPSAPTAAVQRVMREIGQRMEKFARLMGVPFRFRAVHHSGDLAELDLDALDLREGGATTALAVNCVNSLRGVVPGRARRRDAFAASLRRLDPRVVTVVEEEADLVASDPDASSATEEGGDTEAAFLKVFGEGLRFFSAYMDSLEESFPKTSNERLALERGAGRAIVDLVSCPASESMERRETAASWARRMRSAGFSPVAFSEDVADDVRSLLRRYREGWSMREAGTDDSAAGAGVFLAWKEQPLVWASAWRP |
